The campaign covered roughly 330,000 compounds. About 7,700 (2.3%) were called active. The shares of active, inactive and inconclusive entries below differ from those in the screen. Calls come from the whole dose curve; as a rule, active = well fitted inhibition curve with a large enough effect; inconclusive = small, poorly fitted or top-dose-only effect, or effect the other way; inactive = flat fitted curve, though single readings scatter. Where the call is inconclusive, the potency comes from a doubtful curve fit.
assay: qHTS screen for small molecules that inhibit ELG1-dependent DNA repair in human embryonic kidney (HEK293T) cells expressing luciferase-tagged ELG1; details: HEK293T ELG1-luciferase reporter, luminescence, 16 h, DNA damage induced by 5-fluorouridine; activity change, negative = inhibition: at 46.1 µM (top of the series); note: nearly all actives have a fitted effect of over 55% in size
Summary of the method: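 DMSO vehicle served as the neutral condition. Each well held 2,000 cells given 5-fluorouridine plus compound; after 16 hr at 37 °C/5% CO2, ONE-Glo was added and luciferase measured 30 min later.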
% is set by controls: 0 for no effect and ±100 for the full control effect; potency is the fitted concentration of half-maximal effect.

Structure (SMILES) | Potency | activity change, negative = inhibition
O=C(CCCOc1ccc(Cl)cc1)N1CCCCC1 | inconclusive: 20.6 µM [activator, single point] | 
O=C(/C=C/Nc1ccccc1F)c1ccc(Br)cc1 | inconclusive: 1.64 µM [activator, partial curve] | 
COc1cc2c(cc1OC)-c1cc(OCc3ccccc3Cl)nc(=O)n1CC2 | active: 16.4 µM | 
O=C(c1ccncc1)N1CCN(C2CCCCC2)CC1 |  | inactive: 11.2%
CCC(=O)Nc1nnc(SCc2ccc(F)cc2)s1 | inconclusive: 23.1 µM [activator, partial curve, poor fit] | 
Cc1ccc2cc3c(nc2c1)N(Cc1ccco1)CC3 |  | inactive: 18.4%
CCCSc1nnc2n(C)c(=O)c3c4c(sc3n12)CCC4 |  | inactive: -3.43%
Cc1noc(C)c1C(=O)Nc1nc2ccc(F)cc2s1 | inconclusive: 2.51 µM [activator, full curve] | 
COc1ccc(CCNC(=O)c2ccc(-c3ccc([N+](=O)[O-])cc3Cl)o2)cc1 |  | inactive: 4.92%
COc1ccccc1C1=CC(=O)C[C@H](c2ccc(Cl)cc2)C1 | inconclusive: 29.1 µM [inhibitor, single point] | 
Cc1ccc(CNC(=O)COC(=O)c2cncc(Br)c2)cc1 |  | inactive: -0.617%
N#Cc1nc(Cc2cccc3ccccc23)oc1NCc1ccc2c(c1)OCO2 | inconclusive: 29.1 µM [inhibitor, single point] | 
Cc1ccc(CSc2nnc(C)c(=O)n2N)cc1 | inconclusive: 16.4 µM [activator, single point] | 
CC1=CC(C)(C)N(C(=O)CN2C(=O)c3ccccc3C2=O)c2ccc(C)cc21 | inconclusive: 29.1 µM [inhibitor, single point] | 
Cc1ccc(OC(=O)c2ccc3c(=O)n4c(nc3c2)CCC4)cc1 |  | inactive: -14.8%
Cc1c(C(=O)Nc2ccc(C(=O)Nc3ccccc3)cc2)cccc1[N+](=O)[O-] | inconclusive: 29.1 µM [activator, single point] | 
Cc1ccc(-c2nn3c(C)nnc3c3ccccc23)cc1S(=O)(=O)NC(C)(C)CO | inconclusive: 14.6 µM [activator, partial curve] | 
O=C(COc1ccccc1Br)Nc1ccc2c(c1)OCCCO2 | inconclusive: 2.31 µM [activator, full curve] | 
CO/N=C/c1ccc(Sc2ccccc2N)c([N+](=O)[O-])c1 | inconclusive: 16.4 µM [activator, partial curve, poor fit] | 
Cc1ccccc1NC(=O)C1CCN(S(=O)(=O)c2cccc3nonc23)CC1 | inconclusive: 25.9 µM [inhibitor, single point] | 
O=C(NC(=Nc1nc2ccccc2o1)NC(=O)c1ccccc1)c1ccccc1 | inconclusive: 10.3 µM [activator, partial curve] | 
COc1ccccc1CN1CC(C(=O)NCCCc2ccc(F)cc2)CCC1=O (stereo not drawn) | active: 10.3 µM | 
CCOC(=O)CCCC(=O)Nc1ncnc2c1C(c1ccccc1)c1c(ccc3ccccc13)O2 (stereo not drawn) | inconclusive: 18.3 µM [inhibitor, single point] | 

Some of these compounds in order of number of heavy atoms, ascending.
Structure (SMILES) | Potency | activity change, negative = inhibition
Cc1noc(C)c1C(=O)Nc1nc2ccc(F)cc2s1 | inconclusive: 2.51 µM [activator, full curve] | 
CO/N=C/c1ccc(Sc2ccccc2N)c([N+](=O)[O-])c1 | inconclusive: 16.4 µM [activator, partial curve, poor fit] | 
Cc1c(C(=O)Nc2ccc(C(=O)Nc3ccccc3)cc2)cccc1[N+](=O)[O-] | inconclusive: 29.1 µM [activator, single point] | 
Cc1ccc(-c2nn3c(C)nnc3c3ccccc23)cc1S(=O)(=O)NC(C)(C)CO | inconclusive: 14.6 µM [activator, partial curve] | 

More entries follow:

Structure (SMILES) | Potency | activity change, negative = inhibition
CCCOc1ccc(C2NC(=O)NC2=O)cc1 (stereo not drawn) |  | inactive: -3.51%
C=CC[n+]1ccn(-c2nc3ccccc3nc2[N-]S(=O)(=O)c2cccs2)c1 | inconclusive: 23.1 µM [activator, partial curve, poor fit] | 
CC1=NN(c2ccccc2)C(=O)/C1=C\C=C1\N(C)c2ccccc2C1(C)C | inconclusive: 29.1 µM [inhibitor, single point] | 
CCNC(=O)/C(C#N)=C/c1c(N2CCCCCC2)nc2ccccn2c1=O | inconclusive: 14.6 µM [inhibitor, partial curve, poor fit] | 
C=C/C(C)=C/CC1C(=C)CCC2C(C)(C(=O)O)CCCC12C (stereo not drawn) |  | inactive: -3.38%
CC(=O)c1c(C)[nH]c(C(=O)OCc2csc(CC(=O)Nc3ccccc3C)n2)c1C | active: 13 µM | 
CCOC(=O)N/N=C1\CCc2ccccc21 | inconclusive: 20.6 µM [activator, partial curve] | 
CC(C)C[C@@H]1CN=C(N)N1C[C@@H]1CCCN1C[C@H](C)N1C[C@@H](Cc2ccccc2)N(CCCC2CCCC2)C1=N | inconclusive: 23.1 µM [activator, partial curve, poor fit] | 
CNn1cnc2ccsc2c1=O | inconclusive: 16.4 µM [inhibitor, single point] | 
COc1ccc(/C=C/C(=O)N(C)C2CCCCC2)cc1Br | inconclusive: 29.1 µM [activator, single point] | 
CC(=O)Nc1ccc(S(=O)(=O)N(c2cccnc2)S(=O)(=O)c2ccc(NC(C)=O)cc2)cc1 | inconclusive: 23.1 µM [inhibitor, partial curve, poor fit] | 
Cc1cccc(C)c1OCC(=O)N/N=C/c1cc2c(cc1[N+](=O)[O-])OCO2 | inconclusive: 20.6 µM [inhibitor, partial curve] | 
COc1cc(OC)cc(-c2c(C#Cc3ccsc3)c3cc(-c4ccc(SC)cc4)ccc3n2C)c1 | inconclusive: 18.3 µM [activator, single point] | 
O=C(Nc1nc(-c2ccco2)c(-c2ccco2)s1)c1cnccn1 |  | inactive: 2.82%
COC(=O)c1ccc(C(=O)OC)c(NC(=O)CN2CCC(C)CC2)c1 | inconclusive: 16.4 µM [inhibitor, partial curve, poor fit] | 
Cc1cc(C)cc(-n2ncc3c2CCCC3NC(=O)C2CCC2)c1 (stereo not drawn) | inconclusive: 1.16 µM [inhibitor, single point] | 
C=CCn1c(-c2ccc(OC)cc2)csc1=Nc1c(C)n(C)n(-c2ccccc2)c1=O | active: 20.6 µM | 
COc1ccc(-c2noc(CN(C)C3CCOCC3)n2)cc1 | inconclusive: 23.1 µM [activator, partial curve, poor fit] | 
NC(=S)N/N=C/c1cn(CCC(=O)O)nc1-c1cccc(Br)c1 |  | inactive: 0.424%
COC(=O)[C@@H](NC(=O)NC1CCCCC1C)C(C)C (stereo partly drawn) | inconclusive: 14.6 µM [inhibitor, single point] | 
Cc1ccc(C(=O)NCC(=O)OCc2c(F)cccc2Cl)cc1 | inconclusive: 6.51 µM [activator, single point] | 
CCCn1c(CNc2ccccc2O)nc2ccccc21 | inconclusive: 29.1 µM [inhibitor, single point] | 
CSCCC(=O)N1CCC(n2nccc2NC(=O)c2ccc3c(c2)OCO3)CC1 | inconclusive: 18.3 µM [activator, partial curve] | 

Structure (SMILES) | Potency | activity change, negative = inhibition
O=C(Nc1ccc(Cl)cc1C(=O)N1CCCC1)c1cccc([N+](=O)[O-])c1 |  | inactive: 2.54%
O=C(O)/C=C/c1coc2ccccc2c1=O | inconclusive: 14.6 µM [activator, partial curve, poor fit] | 
Cn1c(=O)n(Cc2ccccc2)c(=O)c2c1nc1n2CCS1 | inconclusive: 23.1 µM [inhibitor, single point] | 
COc1ccc(C(=O)NCc2nnc(SC)n2Cc2ccccc2)cc1 |  | inactive: 19.2%
CC1CCCN(C(=O)Cc2cn(Cc3cccc(Cl)c3)c3ccccc23)C1 (stereo not drawn) |  | inactive: 3.85%
O=C(O)/C=C\C(=O)Nc1ccc(OCc2ccccc2)cc1 | inconclusive: 11.6 µM [activator, partial curve] | 
CC(C)(C)OC(=O)COc1cc(F)ccc1[N+](=O)[O-] |  | inactive: -2.33%
Cc1ccc(C)c(OCCC(=O)OCC(=O)NNC(=O)c2ccccc2)c1 |  | inactive: 10.9%
O=C1c2cc(S(=O)(=O)NCCO)ccc2-c2ccc(S(=O)(=O)NCCO)cc21 |  | inactive: -19.3%
Cc1cc(C)c2c(N)c(C(=O)Nc3ccc([N+](=O)[O-])cc3)sc2n1 | inconclusive: 0.58 µM [activator, partial curve] | 
Cn1ccc(=Nc2ccc(NC(=O)c3ccc(N=c4ccn(C)c5ccc([N+](=O)[O-])cc45)cc3)cc2)cc1 | inconclusive: 1.16 µM [inhibitor, single point] | 
O=C(Cn1cnc2c(nnn2Cc2ccc(F)cc2)c1=O)Nc1cccc(F)c1 | inconclusive: 29.1 µM [activator, single point] | 
O=C(NNC(=O)c1ccccc1O)c1ccc(Br)cc1 | inconclusive: 7.94 µM [activator, partial curve, poor fit] | 
O=C(NCc1cccs1)c1nn2cccnc2c1Cl | inconclusive: 18.4 µM [activator, partial curve] | 
Cc1ccc(C(C#N)c2ccc3c(C(F)(F)F)cc(C(F)(F)F)nc3n2)cc1 (stereo not drawn) | inconclusive: 20.6 µM [inhibitor, single point] | 
CNC[C@H](Cc1cccc2ccccc12)NC[C@H](CCSC)NCC1CCC(C(C)(C)C)CC1 (stereo partly drawn) | inconclusive: 18.3 µM [activator, partial curve, poor fit] | 
COc1ccccc1N1CCN(C(=O)c2ccco2)CC1 | inconclusive: 16.4 µM [activator, partial curve, poor fit] | 
COc1ccc(S(=O)(=O)N2CCN(CC(O)COc3ccc(CC#N)cc3)CC2)cc1OC (stereo not drawn) | inconclusive: 0.259 µM [inhibitor, full curve, poor fit] | 
COc1ccc(C2=NOC(COc3ccc([N+](=O)[O-])cc3)C2)cc1 (stereo not drawn) | inconclusive: 14.6 µM [inhibitor, partial curve, poor fit] | 
O=C(c1ccccc1)N1CCC(c2nc3c(nnn3Cc3ccccc3Cl)c(=O)[nH]2)CC1 | inconclusive: 20.6 µM [inhibitor, single point] | 
O=C(NNC(=O)C1CCC1)c1cccc(Cl)c1 | inconclusive: 8.2 µM [activator, partial curve, poor fit] | 
CN1CCN(CCCCOc2cccc3ccccc23)CC1 | inconclusive: 29.1 µM [activator, single point] | 

— PubChem BioAssay AID504467 (National Center for Advancing Translational Sciences (NCATS), 2011)
